Earlier results in paper PMC10476265, “Optimized LC-MS/MS Method for the Detection of ppCCK(21–44): A Surrogate to Monitor Human Cholecystokinin Secretion” (Journal of Proteome Research, 2023).

Details: cited from earlier work

B1: cholecystokinin (peptide, UniProt P06307 21-115, looked up)
Cholecystokinin: QPVPPADPAGSGLQRAEEAPRRQLRVSQRTDGESRAHLGALLARYIQQARKAPSGRMSIVKNLQNLDPSHRISDRDYMGWMDFGRRSAEEYEYPS
modifications: Cholecystokinin
resting CCK level in plasma (200 mL liquid meal test, in-house radioimmunoassay against CCK C-terminus): ~1 pM
CCK level in plasma at 30 min (30 min after 200 mL liquid meal, radioimmunoassay): ~3 pM
transient peak CCK level in plasma (reached 8–10 min after meal ingestion, 200 mL liquid meal, radioimmunoassay): ~6 pM
